Data taken from patent US11026419B2, “Silver- and copper-chelating ionic liquids, polymers, and gels, and uses thereof” (Massachusetts Institute of Technology, priority 2016, dated 2021).

Experiment: Extraction of Fe(III) from aqueous solution into ionic liquid, ICP-OES
Type: physicochemical
Conditions: for % extracted: 1 mL ionic liquid, 1 mL aqueous solution; for [Fe (III)] after extraction: aqueous phase
[1] = [Fe(III)] before extraction 53.48 ppm
[2] = [Fe(III)] before extraction 501.53 ppm
[3] = [Fe(III)] before extraction 5860.33 ppm

N-hexylethylenediaminium bis(trifluoroethanesulfonyl)amide [[HHex][Tf2N]]
% extracted ([Fe(III)] before extraction 0.06 ppm): 100%
% extracted ([Fe(III)] before extraction 0.48 ppm): 100%
% extracted ([Fe(III)] before extraction 4.79 ppm): 100%
% extracted [1]: 92.5%
[Fe (III)] after extraction [1]: 4.14 ppm
% extracted [2]: 99.4%
[Fe (III)] after extraction [2]: 2.81 ppm
% extracted [3]: 99.1%
[Fe (III)] after extraction [3]: 54.60 ppm
